In article PMC12606344 one finds binding data, which are given here for 3 substances.

The chains behind the UniProt entries cited, without tags or fusion partners.
UniProt Q92466: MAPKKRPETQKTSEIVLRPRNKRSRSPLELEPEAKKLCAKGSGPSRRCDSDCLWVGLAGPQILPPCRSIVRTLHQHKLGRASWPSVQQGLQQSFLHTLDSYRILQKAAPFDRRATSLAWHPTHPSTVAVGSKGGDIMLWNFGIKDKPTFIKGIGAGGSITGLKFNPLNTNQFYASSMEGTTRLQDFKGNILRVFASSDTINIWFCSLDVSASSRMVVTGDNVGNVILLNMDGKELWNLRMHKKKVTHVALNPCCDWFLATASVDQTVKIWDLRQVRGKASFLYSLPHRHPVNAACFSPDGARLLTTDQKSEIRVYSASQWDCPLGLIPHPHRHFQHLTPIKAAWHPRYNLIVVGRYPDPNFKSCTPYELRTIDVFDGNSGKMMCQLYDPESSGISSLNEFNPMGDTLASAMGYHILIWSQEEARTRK
UniProt Q13619: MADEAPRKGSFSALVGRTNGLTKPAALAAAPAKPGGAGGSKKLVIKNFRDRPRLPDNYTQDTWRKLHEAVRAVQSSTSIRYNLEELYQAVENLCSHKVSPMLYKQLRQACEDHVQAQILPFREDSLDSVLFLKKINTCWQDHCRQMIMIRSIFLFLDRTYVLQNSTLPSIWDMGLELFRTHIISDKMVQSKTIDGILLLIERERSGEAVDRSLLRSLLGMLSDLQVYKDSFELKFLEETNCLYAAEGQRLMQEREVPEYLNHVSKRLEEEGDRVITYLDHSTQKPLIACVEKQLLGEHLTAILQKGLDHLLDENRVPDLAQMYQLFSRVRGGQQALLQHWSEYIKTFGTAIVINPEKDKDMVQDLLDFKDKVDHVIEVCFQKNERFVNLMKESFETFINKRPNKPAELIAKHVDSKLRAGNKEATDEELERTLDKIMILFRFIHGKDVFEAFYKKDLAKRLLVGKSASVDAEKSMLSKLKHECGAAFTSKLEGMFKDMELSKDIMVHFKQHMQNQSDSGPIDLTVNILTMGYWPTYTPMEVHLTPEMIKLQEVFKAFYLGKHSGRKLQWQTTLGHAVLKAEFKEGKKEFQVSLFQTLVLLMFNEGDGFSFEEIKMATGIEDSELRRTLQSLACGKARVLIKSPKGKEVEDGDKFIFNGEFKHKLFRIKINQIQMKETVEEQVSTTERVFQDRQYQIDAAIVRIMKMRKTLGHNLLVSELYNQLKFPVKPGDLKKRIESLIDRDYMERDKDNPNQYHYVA
UniProt Q13620: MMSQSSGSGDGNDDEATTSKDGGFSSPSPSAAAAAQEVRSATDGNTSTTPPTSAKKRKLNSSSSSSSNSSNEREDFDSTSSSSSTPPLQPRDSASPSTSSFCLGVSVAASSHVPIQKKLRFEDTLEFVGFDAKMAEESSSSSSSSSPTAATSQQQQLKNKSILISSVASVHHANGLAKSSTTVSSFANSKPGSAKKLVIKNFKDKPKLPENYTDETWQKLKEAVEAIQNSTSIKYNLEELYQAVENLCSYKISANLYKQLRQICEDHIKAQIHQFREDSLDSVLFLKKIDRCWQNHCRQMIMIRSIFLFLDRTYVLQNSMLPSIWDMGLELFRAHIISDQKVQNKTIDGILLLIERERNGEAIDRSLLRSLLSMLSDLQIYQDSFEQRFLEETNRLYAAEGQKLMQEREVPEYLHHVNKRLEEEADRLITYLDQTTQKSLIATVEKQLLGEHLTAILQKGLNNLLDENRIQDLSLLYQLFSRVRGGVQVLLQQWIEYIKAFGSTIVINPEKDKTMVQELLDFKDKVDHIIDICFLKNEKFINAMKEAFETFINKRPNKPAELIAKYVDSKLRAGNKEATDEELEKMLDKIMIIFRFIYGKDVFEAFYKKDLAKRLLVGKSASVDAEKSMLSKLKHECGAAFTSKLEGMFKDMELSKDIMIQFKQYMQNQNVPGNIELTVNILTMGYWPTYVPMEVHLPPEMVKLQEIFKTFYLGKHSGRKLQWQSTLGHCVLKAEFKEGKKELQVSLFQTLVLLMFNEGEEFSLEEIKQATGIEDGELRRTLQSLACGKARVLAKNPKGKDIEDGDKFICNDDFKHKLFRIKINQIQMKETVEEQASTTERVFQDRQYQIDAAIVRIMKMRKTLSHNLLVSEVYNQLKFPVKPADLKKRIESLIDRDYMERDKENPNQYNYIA
UniProt Q16531: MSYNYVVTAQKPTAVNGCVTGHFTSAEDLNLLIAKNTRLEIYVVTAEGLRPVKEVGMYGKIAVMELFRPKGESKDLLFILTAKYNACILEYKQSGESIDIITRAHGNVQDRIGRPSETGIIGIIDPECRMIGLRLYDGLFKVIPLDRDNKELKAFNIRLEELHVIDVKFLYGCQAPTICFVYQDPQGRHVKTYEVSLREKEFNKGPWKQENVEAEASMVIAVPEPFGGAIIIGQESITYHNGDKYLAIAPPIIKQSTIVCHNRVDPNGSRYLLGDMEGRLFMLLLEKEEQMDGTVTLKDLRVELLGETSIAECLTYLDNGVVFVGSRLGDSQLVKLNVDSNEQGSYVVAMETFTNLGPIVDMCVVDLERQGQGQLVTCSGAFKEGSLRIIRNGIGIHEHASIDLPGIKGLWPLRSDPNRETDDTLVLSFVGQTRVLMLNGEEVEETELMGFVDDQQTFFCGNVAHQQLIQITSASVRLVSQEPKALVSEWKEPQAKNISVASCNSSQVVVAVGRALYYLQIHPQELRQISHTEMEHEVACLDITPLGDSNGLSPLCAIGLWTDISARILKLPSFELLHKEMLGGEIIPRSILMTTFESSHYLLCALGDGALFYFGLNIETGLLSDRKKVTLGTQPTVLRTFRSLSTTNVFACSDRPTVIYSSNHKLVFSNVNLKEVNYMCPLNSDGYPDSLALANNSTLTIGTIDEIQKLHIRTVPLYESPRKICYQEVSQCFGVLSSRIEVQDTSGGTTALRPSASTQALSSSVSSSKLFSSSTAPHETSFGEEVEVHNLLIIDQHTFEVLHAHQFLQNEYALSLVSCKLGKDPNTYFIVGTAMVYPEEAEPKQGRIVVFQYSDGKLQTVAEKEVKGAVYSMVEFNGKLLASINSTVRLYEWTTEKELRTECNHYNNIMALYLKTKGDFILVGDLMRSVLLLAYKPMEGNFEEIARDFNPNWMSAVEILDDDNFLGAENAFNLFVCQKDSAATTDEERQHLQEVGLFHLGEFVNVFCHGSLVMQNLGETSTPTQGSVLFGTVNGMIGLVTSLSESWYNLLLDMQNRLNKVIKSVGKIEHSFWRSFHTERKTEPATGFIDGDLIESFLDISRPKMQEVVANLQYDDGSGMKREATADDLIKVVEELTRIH

These are yes or no findings as the source states them, for the method shown. In cells and extracts the contact can be indirect. A yes stands for co-enrichment or nearness to the bait. Other partners may have been found.

The target of this experiment is FLAG-tagged DDB2 (HEK293F expressing FLAG-DDB2) (human) (UniProt Q92466). The experiment is described as follows: affinity purification with mass spectrometry; anti-FLAG eluate of chromatin from HEK293F cells expressing FLAG-DDB2; same chromatin isolation without crosslinking (as the results say); CBB-stained gel, in-gel and shotgun trypsin digestion, nano LC-MS/MS.
“CUL4A (endogenous, HEK293F) (from UniProt Q13619 1-759) (other; other documents disagree on this pair)”: the binding result is listed as “binds”. As to “CUL4B (endogenous, HEK293F) (from UniProt Q13620 1-913)”, the binding entry is given as “binds”.

Regarding “DDB1 (endogenous, HEK293F) (from UniProt Q16531 1-1140)”, the binding entry is “binds”.
